Laboratory results taken from paper PMC12519218 (2025).
Results are given in words; binding and its absence hold for the method and conditions named. In cells and extracts the contact can be indirect. Some binding calls cover weakened binding; strength is not graded here. Tags and fused reporters may be left off the sequences shown.

T1: ATRAP-HA (UniProt Q6RW13)
T1 sequence: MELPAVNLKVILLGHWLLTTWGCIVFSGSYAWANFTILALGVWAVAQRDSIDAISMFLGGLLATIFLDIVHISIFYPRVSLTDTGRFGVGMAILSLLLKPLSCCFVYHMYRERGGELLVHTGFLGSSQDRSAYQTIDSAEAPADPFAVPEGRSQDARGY

T2: GST-AP4μ^160–453 (UniProt O00189)
T2 sequence: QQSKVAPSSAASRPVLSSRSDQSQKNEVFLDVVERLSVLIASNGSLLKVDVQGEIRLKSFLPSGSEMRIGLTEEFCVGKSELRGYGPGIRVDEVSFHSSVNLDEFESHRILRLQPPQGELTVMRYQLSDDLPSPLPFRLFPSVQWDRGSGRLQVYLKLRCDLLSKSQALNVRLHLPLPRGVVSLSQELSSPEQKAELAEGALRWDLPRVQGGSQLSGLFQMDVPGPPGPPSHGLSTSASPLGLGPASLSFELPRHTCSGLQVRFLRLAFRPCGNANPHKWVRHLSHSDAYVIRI


Experiments:
ATRAP-HA = molecular target: T1, ATRAP-HA; assay: co-IP; lysates from HEK293T cells expressing the indicated constructs; bound proteins analysed by immunoblot
GST-AP4μ^160–453 = molecular target: T2, GST-AP4μ^160–453; assay: pull-down; purified GST-AP4μ 160–453 incubated with lysates from transfected HEK293T cells; bound proteins analysed by immunoblot, normalised to the 2% loading; only the target purified

binding (ATRAP-HA)	binding (GST-AP4μ^160–453)	Binder
binds		AP4ε-GST (protein, UniProt Q9UPM8 1-1137) MSDIVEKTLTALPGLFLQNQPGGGPAAAKASFSSRLGSLVRGITALTSKHEEEKLIQQELSSLKATVSAPTTTLKMMKECMVRLIYCEMLGYDASFGYIHAIKLAQQGNLLEKRVGYLAVSLFLHESHELLLLLVNTVVKDLQSTNLVEVCMALTVVSQIFPCEMIPAVLPLIEDKLQHSKEIVRRKAVLALYKFHLIAPNQVQHIHIKFRKALCDRDVGVMAASLHIYLRMIKENSSGYKDLTGSFVTILKQVVGGKLPVEFNYHSVPAPWLQIQLLRILGLLGKDDQRTSELMYDVLDESLRRAELNHNVTYAILFECVHTVYSIYPKSELLEKAAKCIGKFVLSPKINLKYLGLKALTYVIQQDPTLALQHQMTIIECLDHPDPIIKRETLELLYRITNAQNITVIVQKMLEYLHQSKEEYVIVNLVGKIAELAEKYAPDNAWFIQTMNAVFSVGGDVMHPDIPNNFLRLLAEGFDDETEDQQLRLYAVQSYLTLLDMENVFYPQRFLQVMSWVLGEYSYLLDKETPEEVIAKLYKLLMNDSVSSETKAWLIAAVTKLTSQAHSSNTVERLIHEFTISLDTCMRQHAFELKHLHENVELMKSLLPVDRSCEDLVVDASLSFLDGFVAEGLSQGAAPYKPPHQRQEEKLSQEKVLNFEPYGLSFSSSGFTGRQSPAGISLGSDVSGNSAETGLKETNSLKLEGIKKLWGKEGYLPKKESKTGDESGALPVPQESIMENVDQAITKKDQSQVLTQSKEEKEKQLLASSLFVGLGSESTINLLGKADTVSHKFRRKSKVKEAKSGETTSTHNMTCSSFSSLSNVAYEDDYYSNTLHDTGDKELKKFSLTSELLDSESLTELPLVEKFSYCSLSTPSLFANNNMEIFHPPQSTAASVAKESSLASSFLEETTEYIHSNAMEVCNNETISVSSYKIWKDDCLLMVWSVTNKSGLELKSADLEIFPAENFKVTEQPGCCLPVMEAESTKSFQYSVQIEKPFTEGNLTGFISYHMMDTHSAQLEFSVNLSLLDFIRPLKISSDDFGKLWLSFANDVKQNVKMSESQAALPSALKTLQQKLRLHIIEIIGNEGLLACQLLPSIPCLLHCRVHADVLALWFRSSCSTLPDYLLYQCQKVMEGS
	binds	ATRAP-HA (protein, UniProt Q6RW13 1-159) MELPAVNLKVILLGHWLLTTWGCIVFSGSYAWANFTILALGVWAVAQRDSIDAISMFLGGLLATIFLDIVHISIFYPRVSLTDTGRFGVGMAILSLLLKPLSCCFVYHMYRERGGELLVHTGFLGSSQDRSAYQTIDSAEAPADPFAVPEGRSQDARGY
